Laboratory results reported in PubChem BioAssay AID485318 (Broad Institute, 2010).
Hit rate of the full screen: of about 1,400 compounds, fewer than 10 were called active.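 Rule for the calls: active = fluorescence-lowering compounds whose fitted half-maximal concentration is at or below ten times the highest valid dose tested; inconclusive = flat curve at 30 to 70% inhibition, or poor fit; inactive = the rest.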 The list shows a part of the results.

Protein sequences, listed by entry. Tags and fused reporters are not part of them. Lines headed by an entry give the natural chain unless they say otherwise; changes in a name come on top.
UniProt O15379: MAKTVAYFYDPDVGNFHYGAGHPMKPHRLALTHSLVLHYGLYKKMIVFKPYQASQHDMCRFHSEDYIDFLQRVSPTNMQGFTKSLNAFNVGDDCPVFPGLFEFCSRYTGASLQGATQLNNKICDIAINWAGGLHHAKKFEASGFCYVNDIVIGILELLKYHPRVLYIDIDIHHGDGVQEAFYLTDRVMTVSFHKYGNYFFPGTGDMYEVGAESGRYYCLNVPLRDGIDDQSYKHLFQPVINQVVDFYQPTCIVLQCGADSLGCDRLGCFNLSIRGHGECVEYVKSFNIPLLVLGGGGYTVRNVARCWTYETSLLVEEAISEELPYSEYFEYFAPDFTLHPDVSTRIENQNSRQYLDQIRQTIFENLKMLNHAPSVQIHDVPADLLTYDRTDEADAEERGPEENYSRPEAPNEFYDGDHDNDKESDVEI

Each molecule was assayed against Histone deacetylase 3 (Homo sapiens) (UniProt O15379) (assay: HDAC3 deacetylase inhibitors, dose response, counter-screen for JMJD2C/GASC1 demethylase inhibitor project, biochemical, fluorescence, cherry-picked samples (AID 485318;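 note: enzyme preincubated with compound before substrate and trypsin were added; 0% = neutral control wells and -100% = SAHA positive control wells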)). Conditions: recombinant HDAC3, fluorogenic peptide/trypsin coupled; at 12 µM (top of the series).
In the case of `O=S1(=O)CCC(N=Nc2c(O)n(Cc3ccccc3)c3ccccc23)C1` (stereo unspecified), the activity change, negative = inhibition was inactive: -0.232%. `COc1ccc(N2C(=O)CSC23CCCCC3)cc1` was tested, and the activity change, negative = inhibition was inactive: 0.434%. `CC(C)(C)c1ccc(C2(C)NC(=O)N(CC(=O)Nc3ccc4c(c3)OCO4)C2=O)cc1` (stereo unspecified) was tested, and the activity change, negative = inhibition was inactive: 0.267%. For `NS(=O)(=O)c1ccc(CNC(=S)Nc2ccc(F)c(Cl)c2)cc1`, the activity change, negative = inhibition was inactive: 0.414%. With `CN(c1ccc(C(=O)O)cc1)S(=O)(=O)c1ccccc1` the activity change, negative = inhibition was inactive: 0.224%. `O=C(/C=C/c1cccs1)NC1CCS(=O)(=O)C1` (stereo unspecified) was tested, and the activity change, negative = inhibition was inactive: -0.185%. For `C[C@]12c3[nH]c4ccccc4c3CCN1C(=O)C(CC(=O)NCc1cccc(C(F)(F)F)c1)C[C@@H]2C(=O)N1CCCCC1` (stereo partly specified), the activity change, negative = inhibition was inactive: 0.131%. For `Cc1cccc(NC(=O)CC2Nc3cccc4cccc(c34)NC2=O)c1` (stereo unspecified), the activity change, negative = inhibition was inactive: -0.526%. With `CC(C)n1cnc2c(NCc3ccccc3)nc(NCc3ccccc3)nc21` the activity change, negative = inhibition was inactive: -0.0993%. For `CCCN(CC(=O)Nc1ccccc1C)C(=O)C1CCN(S(=O)(=O)c2ccccc2C(F)(F)F)CC1`, the activity change, negative = inhibition was inactive: 0.495%. In the case of `CCOC(=O)C1=C(N)Oc2ccc3ccccc3c2C1c1cccnc1` (stereo unspecified), the activity change, negative = inhibition was inactive: -0.152%. For `COc1ccc(NC(=O)N(C)C[C@H]2Oc3ccc(NC(=O)CCC(F)(F)F)cc3C(=O)N([C@H](C)CO)C[C@@H]2C)cc1`, the activity change, negative = inhibition was inactive: 0.728%. In the case of `CCc1ccc([C@@H]2CC=C(C(=O)O)[C@H](c3ccc(Br)cc3)N2S(=O)(=O)c2ccc(C)cc2)cc1`, the activity change, negative = inhibition was inactive: -0.057%. For `O=C(NCC1CCCO1)C(c1ccc(F)cc1)N(CCCN1CCOCC1)C(=O)c1ccc(-c2ccccc2)[nH]1` (stereo unspecified), the activity change, negative = inhibition was inactive: 0.816%. With `CCN(CC(=O)Nc1ccc2c(c1)OCCO2)C(=O)CC1CCCC1` the activity change, negative = inhibition was inactive: 0.513%. In the case of `CC(=O)Nc1ccc(CN2CCN(c3cccc(C(F)(F)F)c3)CC2)cc1`, the activity change, negative = inhibition was inactive: 1.03%. In the case of `c1csc(Cn2nnnc2CN2CCN(c3nc4ccccc4s3)CC2)c1`, the activity change, negative = inhibition was inactive: 0.656%. `Cc1nnc(N(C)C(=O)c2ccccn2)s1` was tested, and the activity change, negative = inhibition was inactive: 0.663%. For `Cc1c(C(c2ccc([N+](=O)[O-])cc2)c2c(C)n(C)n(-c3ccccc3)c2=O)c(=O)n(-c2ccccc2)n1C`, the activity change, negative = inhibition was inactive: 0.477%. For `O=C(O)Cn1cc(/C=C2/SC(=O)N(CC(=O)N3CCCCCC3)C2=O)c2ccccc21`, the activity change, negative = inhibition was inactive: 0.469%. With `N#CCCn1c(SCC(=O)N2CCN(S(=O)(=O)c3ccccc3)CC2)nc2ccccc21` the activity change, negative = inhibition was inactive: 0.508%. For `Oc1cc2ccccc2cc1-c1nnc2n1-c1ccccc1SC2`, the activity change, negative = inhibition was inactive: -0.266%. With `Cc1cc(=S)c2cccc(C)c2[nH]1` the activity change, negative = inhibition was inactive: -0.276%. With `CCOC(=O)N1CCC(N2CCN(c3cc(C)ccc3C)CC2)CC1` the activity change, negative = inhibition was inactive: 1.07%. `CCn1c(CCn2ccnc2C)n[nH]c1=S` was tested, and the activity change, negative = inhibition was inactive: 0.292%. For `COc1ccc(S(=O)(=O)C(C#N)c2nc3ccccc3nc2N2CCCCC2)cc1` (stereo unspecified), the activity change, negative = inhibition was inactive: 0.282%. For `Cc1ccc(NC(=O)CSc2nnc(-c3cccs3)n2Cc2ccco2)cc1`, the activity change, negative = inhibition was inactive: -0.228%. For `CCOc1ccc(N2C(=O)CC(N(O)c3ccccc3)C2=O)cc1` (stereo unspecified), the activity change, negative = inhibition was inactive: 0.801%. `CCOC(=O)Cc1ccc(NC(=O)c2ccc(C(C)(C)C)cc2)cc1` was tested, and the activity change, negative = inhibition was inactive: 0.971%. `CCc1nnc(NC(=O)CCC(=O)N2CCN(Cc3ccc(Cl)cc3)CC2)s1` was tested, and the activity change, negative = inhibition was inactive: -1.01%. `COc1ccc(-c2cc(C(F)(F)F)n3nc(C(=O)NCCCN4CCOCC4)cc3n2)cc1` was tested, and the activity change, negative = inhibition was inactive: 0.8%. In the case of `COc1ccc(S(=O)(=O)N(C)C[C@H]2Oc3ccc(NC(=O)Cn4cnnn4)cc3C(=O)N([C@H](C)CO)C[C@@H]2C)cc1`, the activity change, negative = inhibition was inactive: 0.0417%. `O=C(Cn1cnc2c(OCc3ccccc3)ncnc21)N1CCN(c2ccccn2)CC1` was tested, and the activity change, negative = inhibition was inactive: 0.178%. For `COc1ccc(CCNC(=O)N2c3ccccc3Sc3ccccc32)cc1`, the activity change, negative = inhibition was inactive: 1.25%. With `COc1ccccc1NC(=O)COC(=O)c1[nH]c(=O)[nH]c(=O)c1N` the activity change, negative = inhibition was inactive: -0.201%. For `COc1cc(C(C(=O)NC2CCCCC2)N(Cc2cccs2)C(=O)Cc2c[nH]c3ccccc23)cc(OC)c1OC` (stereo unspecified), the activity change, negative = inhibition was inactive: 0.495%. For `Cc1cc(C(=O)Nc2sc3c(c2C#N)CCC(C)C3)no1` (stereo unspecified), the activity change, negative = inhibition was inactive: 0.596%. In the case of `O=C(OCc1c(Cl)cccc1Cl)c1cnccn1`, the activity change, negative = inhibition was inactive: -11.3%. In the case of `Cc1cccc(-n2cnc(C(=O)NNC(=S)Nc3ccccc3)c2)n1`, the activity change, negative = inhibition was inactive: 0.141%. For `NC(=O)Cn1nc([N+](=O)[O-])nc1Oc1ccccc1F`, the activity change, negative = inhibition was inactive: 0.000497%. `NC(=O)C1CCN(C(=O)c2ccc(Oc3cc(Cl)cc(Cl)c3)o2)CC1` was tested, and the activity change, negative = inhibition was inactive: 1.65%. With `CCN(C(=O)C(C)Sc1ccc(S(=O)(=O)N2CCOCC2)cn1)c1ccccc1` (stereo unspecified) the activity change, negative = inhibition was inactive: -0.226%. `Cc1ccc(N2NC3(CCN(C(N)=O)CC3)NC2=O)cc1` was tested, and the activity change, negative = inhibition was inactive: -0.0157%. For `COc1ccc(C(=O)OCC(=O)c2ccccc2)cc1S(=O)(=O)N1CCOCC1`, the activity change, negative = inhibition was inactive: -0.0201%. In the case of `CCOC(=O)C1=C(C)N(C)C(C)=C(C(=O)OCC)C1c1cccnc1`, the activity change, negative = inhibition was inactive: 1.37%. With `COc1cc2c(cc1OC)C(=O)N1[C@H]3c4cc(C)ccc4OC[C@@H]3[C@H](c3ccccc3)[C@]1(C)C(=O)N2` the activity change, negative = inhibition was inactive: 0.0577%. For `CCOc1ccc(N=Cc2c(O)n(-c3cccc(C)n3)c(=O)c3ccccc23)cc1`, the activity change, negative = inhibition was inactive: 0.766%. `C=CCN(C(=O)Nc1ccccc1)C1CC(=O)N(c2ccc(OC)cc2)C1=O` (stereo unspecified) was tested, and the activity change, negative = inhibition was inactive: 0.423%. With `N#Cc1ccc(OCC(=O)N2CCN(S(=O)(=O)c3cccs3)CC2)cc1` the activity change, negative = inhibition was inactive: 0.818%. With `Cc1cc(NC(=O)COc2ncnc3sc(C)c(C)c23)no1` the activity change, negative = inhibition was inactive: -0.747%. With `COc1ccc(NC(NC(=O)c2cccnc2)C(Cl)(Cl)Cl)cc1` (stereo unspecified) the activity change, negative = inhibition was inactive: -0.275%. With `Cc1ccc(Nc2c(-c3ccccn3)nc3cc(C)ccn23)cc1` the activity change, negative = inhibition was inactive: 0.946%. With `CNC(=O)/C(C#N)=C/c1c(N(Cc2ccccc2)Cc2ccccc2)nc2ccccn2c1=O` the activity change, negative = inhibition was inactive: 1.26%. For `CCC(C)NCCCOc1ccc(C)cc1OC` (stereo unspecified), the activity change, negative = inhibition was inactive: 0.0239%. In the case of `COc1cccc(NC(=S)/C(=C(\[O-])c2ccc(C)c([N+](=O)[O-])c2)[n+]2ccccc2)c1`, the activity change, negative = inhibition was inactive: -0.0179%. For `COC(=O)C1=C(C)N(Cc2ccccc2)C(=NCCc2c[nH]c3ccccc23)N[C@H]1c1ccccc1`, the activity change, negative = inhibition was inactive: 0.954%. For `COc1ccc(N2CCN(C(=O)c3nn(C)c4c3CS(=O)(=O)c3ccccc3-4)CC2)cc1`, the activity change, negative = inhibition was inactive: -0.348%. With `COC(=O)c1ccccc1NC(=O)CC(NCc1ccccc1)C(=O)O` (stereo unspecified) the activity change, negative = inhibition was inactive: -0.642%. In the case of `CCn1nnc(NC(=O)c2cc3ccccc3o2)n1`, the activity change, negative = inhibition was inactive: 0.0225%. For `CCc1ccc(NC(=O)N(CCN2CCOCC2)C2CCN(C(C)=O)CC2)cc1`, the activity change, negative = inhibition was inactive: -0.0195%. For `CC(=O)C[C@@H](O)CC(=O)[C@@H]1OC(=O)[C@@H](C)C/C=C\Cc2ccccc21`, the activity change, negative = inhibition was inactive: -0.334%. In the case of `CSCCC(NS(=O)(=O)c1ccc2ccccc2c1)C(=O)O` (stereo unspecified), the activity change, negative = inhibition was inactive: 0.834%. In the case of `Nc1nc2n(n1)C(c1cccs1)CC(c1ccccc1)N2` (stereo unspecified), the activity change, negative = inhibition was inactive: 0.444%. In the case of `CC(=O)OC(C(=O)NCc1ccc2c(c1)OCO2)c1ccccc1Cl` (stereo unspecified), the activity change, negative = inhibition was inactive: -0.735%. For `COc1ccccc1NC(=O)COC(=O)/C=C/c1cccs1`, the activity change, negative = inhibition was inactive: 0.282%. In the case of `Cc1cc(C)c(S(=O)(=O)Nc2cc(SCC(=O)O)c(O)c3ccccc23)cc1C`, the activity change, negative = inhibition was inactive: 0.816%. `O=C(COC(=O)c1ccccc1SCC(=O)N1CCCC1)NC1CCS(=O)(=O)C1` (stereo unspecified) was tested, and the activity change, negative = inhibition was inactive: 0.18%. For `CCOc1ccccc1N(CC(=O)O)S(=O)(=O)c1ccc(C)cc1`, the activity change, negative = inhibition was inactive: 0.686%. For `CCCNC(=O)c1ccccc1N1CCN(CCCCN2C(=O)C3CCCCN3C2=O)CC1` (stereo unspecified), the activity change, negative = inhibition was inactive: 0.555%. In the case of `CCC(=O)Nc1cc2c(C)cc(=O)oc2cc1C`, the activity change, negative = inhibition was inactive: 0.351%. With `O=C1CC(CSc2ccc(Cl)cc2)=NN1` the activity change, negative = inhibition was inactive: 0.222%. For `CC1(C)[N+]([O-])=C2C(=[N+]([O-])C1(C)C)c1ccccc1/C2=N\O`, the activity change, negative = inhibition was inactive: 0.668%. In the case of `COc1cccc(CNC(=O)c2cc3c(cc2Cl)N2CCCCCC2=NS3(=O)=O)c1`, the activity change, negative = inhibition was inactive: 0.843%. In the case of `CC1CCN(c2ccc3c(c2)S(=O)(=O)c2cccc(C(=O)NC4CC4)c2C3=O)CC1`, the activity change, negative = inhibition was inactive: 0.857%. `CCN(CC)CCCOc1ccc(C)cc1Br` was tested, and the activity change, negative = inhibition was inactive: 0.403%. With `CSc1ccc(C=NNc2ccc(S(=O)(=O)Nc3ccccc3C(=O)O)cc2[N+](=O)[O-])cc1` the activity change, negative = inhibition was inactive: 0.0382%. With `Cc1ccc(OCC(=O)Nc2ccccc2Sc2ccccc2)c([N+](=O)[O-])n1` the activity change, negative = inhibition was inactive: -8.1%. `COc1cc2c(cc1OC)CN(C(=O)CSc1n[nH]c(N)n1)CC2` was tested, and the activity change, negative = inhibition was inactive: 0.262%. With `Cc1ccc2c(c1)c1c3n2CCCNC3CCC1` (stereo unspecified) the activity change, negative = inhibition was inactive: 0.108%. In the case of `CC(C)(C)c1ccc(C(=O)N2CCC(C(=O)NCc3ccncc3)CC2)cc1`, the activity change, negative = inhibition was inactive: 0.739%. For `Cc1ccc(C(=O)N2CCN(c3ccc(Cl)cc3)CC2)cc1`, the activity change, negative = inhibition was inactive: -0.291%. For `COC(=O)[C@]1(Cc2ccccc2)N[C@H](CN(C)S(=O)(=O)c2ccc(F)cc2)[C@@H]2C(=O)N(Cc3ccccc3)C(=O)[C@@H]21`, the activity change, negative = inhibition was inactive: 0.164%. With `CC(NC(=O)CCC(=O)c1ccc(F)cc1)C1CC2CCC1C2` (stereo unspecified) the activity change, negative = inhibition was inactive: 0.48%. In the case of `CCN1C(=O)C(CC(=O)Nc2ccc(OC)cc2)N(CCc2ccccc2F)C1=S` (stereo unspecified), the activity change, negative = inhibition was inactive: 0.838%. In the case of `CC1(C)C2CCC1(CS(=O)(=O)N1CCN(c3ccccc3F)CC1)C(=O)C2` (stereo unspecified), the activity change, negative = inhibition was inactive: 0.137%. With `O=C(Cc1ccccc1)NNC(=O)c1cccs1` the activity change, negative = inhibition was inactive: 0.0777%.
